Source: publication PMC3171476
These are yes or no findings as the source states them, for the method shown. Binding seen in cells or lysates may run through a third protein. Some entries that bind do so weakly or less than the wild type. Tags and fused reporters may be left off the sequences shown.

What was measured:
[1] = target: T1, Lsc1-HA (Lsc1p, cyclin subunit of the Ser-2 CTD kinase complex) (Schizosaccharomyces pombe) (UniProt O59748); assay: co-IP; anti-HA immunoprecipitation (Protein G Dynabeads) from 2 mg of native S. pombe cell extract (1% IGEPAL CA630, 150 mM NaCl, 50 mM Tris-HCl pH 8.0); immunoblot with anti-myc
T1 sequence: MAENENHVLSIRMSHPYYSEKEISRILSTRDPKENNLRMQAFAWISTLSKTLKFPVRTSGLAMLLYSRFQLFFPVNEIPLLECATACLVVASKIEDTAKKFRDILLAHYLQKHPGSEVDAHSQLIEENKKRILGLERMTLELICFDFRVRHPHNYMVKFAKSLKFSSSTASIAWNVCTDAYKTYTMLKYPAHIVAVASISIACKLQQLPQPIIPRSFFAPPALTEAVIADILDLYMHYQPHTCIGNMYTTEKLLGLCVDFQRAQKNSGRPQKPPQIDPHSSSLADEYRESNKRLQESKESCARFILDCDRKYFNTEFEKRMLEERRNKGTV

[2] = target: T2, Lsk1-HA (Lsk1p, Ser-2 CTD kinase catalytic subunit) (Schizosaccharomyces pombe) (UniProt O14098); assay: as above
T2 sequence: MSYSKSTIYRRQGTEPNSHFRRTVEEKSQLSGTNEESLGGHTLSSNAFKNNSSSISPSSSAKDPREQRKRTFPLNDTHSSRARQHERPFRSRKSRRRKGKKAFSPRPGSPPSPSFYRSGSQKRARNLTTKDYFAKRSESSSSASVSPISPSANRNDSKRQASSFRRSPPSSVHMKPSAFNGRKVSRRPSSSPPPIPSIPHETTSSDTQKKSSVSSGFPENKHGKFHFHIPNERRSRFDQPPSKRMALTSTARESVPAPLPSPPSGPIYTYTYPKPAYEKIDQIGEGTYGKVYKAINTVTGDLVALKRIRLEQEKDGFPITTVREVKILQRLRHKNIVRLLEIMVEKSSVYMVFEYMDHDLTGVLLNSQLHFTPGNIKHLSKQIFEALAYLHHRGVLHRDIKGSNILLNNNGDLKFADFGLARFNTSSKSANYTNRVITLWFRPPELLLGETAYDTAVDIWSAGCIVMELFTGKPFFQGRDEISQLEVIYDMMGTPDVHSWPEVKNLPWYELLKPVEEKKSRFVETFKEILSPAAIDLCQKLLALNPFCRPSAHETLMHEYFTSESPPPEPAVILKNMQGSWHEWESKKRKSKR

B1: Lsg1-myc fusion protein (Lsg1p, latrunculin sensitive CTD kinase gamma subunit) (protein, UniProt Q9USJ8 1-218)
chain: MDPFEGRMTFLQLLGKLNASQFSQIKPAQFAIKHLDLEEDLYSCIWEELESGSFNTRVNIMYFVDTLCEMCLKNGLTGGYLNMISRDICKLVQNVAPIGAAGAANAPEVRKVLQSLHEKKVIDDNQYKDAMATVEAHEQASKSGDTSTSGAISKNDILKRIEEDRERHKRMRENIWAISEPELEAEIAWNTTQGITESDLESLKDEYEKFNECLHATS
- binding [1]: binds
- binding [2]: binds
